{
  "source": "patent US10556933B2",
  "about": "(Affibody AB, priority 2007, dated 2020)",
  "test": "peptide synthesis",
  "conditions": "whole synthesis",
  "data": [
    {"sequence": "AEAKYAKEMWIAWEEIRNLPNLNGWQMTAFIAKLLDDPSQSSELLSEAKKLNDSQAPKC", "values": [
      {"measurement": "crude yield", "result": 15, "unit": "%"}
    ]}
  ]
}
